# KR20220160483A
# Where a chain is given by its changes, count along the chain named. Results are given in words; binding and its absence hold for the method and conditions named. Some entries that bind do so weakly or less than the wild type.
# T1: 재조합 인간 ASM(acid sphingomyelinase) 단백질 (human) (UniProt P17405)
# T1 sequence: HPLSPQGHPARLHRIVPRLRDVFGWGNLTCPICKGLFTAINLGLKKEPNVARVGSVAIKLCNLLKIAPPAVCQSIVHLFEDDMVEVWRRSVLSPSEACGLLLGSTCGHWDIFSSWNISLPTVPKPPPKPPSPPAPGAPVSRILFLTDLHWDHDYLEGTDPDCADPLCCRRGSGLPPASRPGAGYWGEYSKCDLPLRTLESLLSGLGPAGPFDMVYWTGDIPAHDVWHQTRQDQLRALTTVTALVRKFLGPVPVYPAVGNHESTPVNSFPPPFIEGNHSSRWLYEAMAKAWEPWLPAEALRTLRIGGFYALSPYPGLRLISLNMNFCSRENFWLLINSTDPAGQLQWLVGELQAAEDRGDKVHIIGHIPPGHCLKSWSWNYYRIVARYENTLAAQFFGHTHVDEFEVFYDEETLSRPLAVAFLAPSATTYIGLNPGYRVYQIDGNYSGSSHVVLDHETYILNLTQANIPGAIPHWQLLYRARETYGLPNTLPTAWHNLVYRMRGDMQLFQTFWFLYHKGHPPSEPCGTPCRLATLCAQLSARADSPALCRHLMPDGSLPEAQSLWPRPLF
# T2: 재조합 마우스 ASM(acid sphingomyelinase) 단백질 (mouse) (UniProt Q04519)
# T2 sequence: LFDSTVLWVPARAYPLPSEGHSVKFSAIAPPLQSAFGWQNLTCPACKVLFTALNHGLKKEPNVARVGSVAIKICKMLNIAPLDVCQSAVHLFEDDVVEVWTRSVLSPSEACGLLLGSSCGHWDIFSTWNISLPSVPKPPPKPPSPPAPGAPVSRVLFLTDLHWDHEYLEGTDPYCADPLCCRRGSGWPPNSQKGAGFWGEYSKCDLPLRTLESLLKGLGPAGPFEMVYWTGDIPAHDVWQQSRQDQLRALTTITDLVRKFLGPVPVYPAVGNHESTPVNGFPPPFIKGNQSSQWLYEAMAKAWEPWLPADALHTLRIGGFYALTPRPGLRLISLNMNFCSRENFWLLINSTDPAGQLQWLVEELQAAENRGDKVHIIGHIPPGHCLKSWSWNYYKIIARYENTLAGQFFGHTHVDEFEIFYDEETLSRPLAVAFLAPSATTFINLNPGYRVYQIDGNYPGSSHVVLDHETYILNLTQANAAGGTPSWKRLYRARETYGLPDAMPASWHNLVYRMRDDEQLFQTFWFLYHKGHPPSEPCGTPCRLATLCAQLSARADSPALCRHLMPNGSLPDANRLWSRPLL
# B1: #9101 항체 (antibody, mouse IgG1, V domains shown)
# VH: EVQLLESGGGLVQPGGSLRLSCAASGFTFSNYAMSWVRQAPGKGLEWVSGIYPNGGNKYYADSVKGRFTISRDNSKNTLYLQMNSLRAEDTAVYYCAKNAYRFDYWGQGTLVTVSS
# VL: QSVLTQPPSASGTPGQRVTISCSGSSSNIGNNYVSWYQQLPGTAPKLLIYADSKRPSGVPDRFSGSKSGTSASLAIGGLRSEDEADYYCGSWDYSLNAYVFGGGTKLTVLG
# B2: #9104 항체 (antibody, mouse IgG1, V domains shown)
# VH: B1 VH with A33Y, P53Y, N54G, G55S, K58I, K98R, N99D, A100T, Y101P, R102G
# VL: B1 VL with S23T, Y33A, S35N, A51Y, K54H, G77S, S91A, N97S
# B3: #9108 항체 (antibody, mouse IgG1, V domains shown)
# VH: EVQLLESGGGLVQPGGSLRLSCAASGFTFSNYAMSWVRQAPGKGLEWVSAIYPGGGSIYYADSVKGRFTISRDNSKNTLYLQMNSLRAEDTAVYYCARDVLGLTPKPFDYWGQGTLVTVSS
# VL: B1 VL with I20L, S23T, N31S, Y33T, S35Y, D52N, K54Q, G77S, N97S, A98G
# B4: #9113 항체 (antibody, mouse IgG1, V domains shown)
# VH: EVQLLESGGGLVQPGGSLRLSCAASGFTFSSYYMSWVRQAPGKGLEWVSSISPGGSSIYYADSVKGRFTISRDNSKNTLYLQMNSLRAEDTAVYYCAKGASLFDYWGQGTLVTVSS
# VL: B1 VL with Y33A, A51S, S53N, G77S, S91T, Y94A
# What was measured:
# [1] = molecular target: T1, 재조합 인간 ASM(acid sphingomyelinase) 단백질 (human); assay: HDX-MS epitope mapping
# [2] = molecular target: T1, 재조합 인간 ASM(acid sphingomyelinase) 단백질 (human); assay: ELISA on recombinant human ASM
# [3] = molecular target: T2, 재조합 마우스 ASM(acid sphingomyelinase) 단백질 (mouse); assay: BLI (Octet QK384), mouse ASM on AR2G sensor; RMax 0.0185, Full R2 0.5527
# [4] = molecular target: T1, 재조합 인간 ASM(acid sphingomyelinase) 단백질 (human); assay: BLI (Octet QK384)
# [5] = molecular target: T2, 재조합 마우스 ASM(acid sphingomyelinase) 단백질 (mouse); assay: BLI (Octet QK384)
# [6] = molecular target: T2, 재조합 마우스 ASM(acid sphingomyelinase) 단백질 (mouse); assay: BLI (Octet QK384), mouse ASM on AR2G sensor; RMax 0, Full R2 0
Binder,binding [1],binding [2],binding [3],binding [4],binding [5],binding [6]
B1,binds,binds,no binding (tested: 10 nM),binds,–,–
B2,binds,binds,–,binds,binds,–
B3,binds,binds,–,binds,–,–
B4,binds,–,–,binds,–,no binding (tested: 10 nM)
